Measurements reported in the supplement of paper PMC10849652.
Some of the results follow.

Chains of the proteins cited; added tags and fusions are not shown. Lines headed by an entry give the natural chain unless they say otherwise; changes in a name come on top.
UniProt Q9UJ41, whole entry, looked up: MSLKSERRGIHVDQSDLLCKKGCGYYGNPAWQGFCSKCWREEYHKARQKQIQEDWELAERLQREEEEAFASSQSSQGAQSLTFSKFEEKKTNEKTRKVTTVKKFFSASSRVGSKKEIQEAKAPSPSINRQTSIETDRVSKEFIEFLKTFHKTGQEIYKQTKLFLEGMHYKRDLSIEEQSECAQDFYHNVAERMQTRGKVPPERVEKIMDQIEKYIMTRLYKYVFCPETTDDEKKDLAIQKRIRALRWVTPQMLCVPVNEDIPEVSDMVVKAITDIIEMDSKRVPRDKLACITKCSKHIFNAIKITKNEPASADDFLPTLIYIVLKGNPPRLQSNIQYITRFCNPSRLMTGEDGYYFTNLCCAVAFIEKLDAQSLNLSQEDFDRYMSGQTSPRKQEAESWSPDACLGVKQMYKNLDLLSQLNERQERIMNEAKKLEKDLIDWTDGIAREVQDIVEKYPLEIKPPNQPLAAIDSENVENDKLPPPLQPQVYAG
UniProt Q9Y3T6: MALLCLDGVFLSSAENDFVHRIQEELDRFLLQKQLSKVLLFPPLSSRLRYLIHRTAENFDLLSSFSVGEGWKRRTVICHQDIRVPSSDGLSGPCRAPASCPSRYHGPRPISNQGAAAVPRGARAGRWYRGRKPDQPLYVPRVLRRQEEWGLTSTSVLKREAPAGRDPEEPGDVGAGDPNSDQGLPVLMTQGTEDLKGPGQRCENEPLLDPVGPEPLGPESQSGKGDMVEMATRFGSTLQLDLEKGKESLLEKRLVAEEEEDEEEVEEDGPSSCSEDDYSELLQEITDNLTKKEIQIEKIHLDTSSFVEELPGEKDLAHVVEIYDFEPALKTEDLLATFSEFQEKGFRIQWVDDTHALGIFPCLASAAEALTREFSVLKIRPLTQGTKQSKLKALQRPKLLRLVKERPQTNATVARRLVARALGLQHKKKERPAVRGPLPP
UniProt Q9Y4B4: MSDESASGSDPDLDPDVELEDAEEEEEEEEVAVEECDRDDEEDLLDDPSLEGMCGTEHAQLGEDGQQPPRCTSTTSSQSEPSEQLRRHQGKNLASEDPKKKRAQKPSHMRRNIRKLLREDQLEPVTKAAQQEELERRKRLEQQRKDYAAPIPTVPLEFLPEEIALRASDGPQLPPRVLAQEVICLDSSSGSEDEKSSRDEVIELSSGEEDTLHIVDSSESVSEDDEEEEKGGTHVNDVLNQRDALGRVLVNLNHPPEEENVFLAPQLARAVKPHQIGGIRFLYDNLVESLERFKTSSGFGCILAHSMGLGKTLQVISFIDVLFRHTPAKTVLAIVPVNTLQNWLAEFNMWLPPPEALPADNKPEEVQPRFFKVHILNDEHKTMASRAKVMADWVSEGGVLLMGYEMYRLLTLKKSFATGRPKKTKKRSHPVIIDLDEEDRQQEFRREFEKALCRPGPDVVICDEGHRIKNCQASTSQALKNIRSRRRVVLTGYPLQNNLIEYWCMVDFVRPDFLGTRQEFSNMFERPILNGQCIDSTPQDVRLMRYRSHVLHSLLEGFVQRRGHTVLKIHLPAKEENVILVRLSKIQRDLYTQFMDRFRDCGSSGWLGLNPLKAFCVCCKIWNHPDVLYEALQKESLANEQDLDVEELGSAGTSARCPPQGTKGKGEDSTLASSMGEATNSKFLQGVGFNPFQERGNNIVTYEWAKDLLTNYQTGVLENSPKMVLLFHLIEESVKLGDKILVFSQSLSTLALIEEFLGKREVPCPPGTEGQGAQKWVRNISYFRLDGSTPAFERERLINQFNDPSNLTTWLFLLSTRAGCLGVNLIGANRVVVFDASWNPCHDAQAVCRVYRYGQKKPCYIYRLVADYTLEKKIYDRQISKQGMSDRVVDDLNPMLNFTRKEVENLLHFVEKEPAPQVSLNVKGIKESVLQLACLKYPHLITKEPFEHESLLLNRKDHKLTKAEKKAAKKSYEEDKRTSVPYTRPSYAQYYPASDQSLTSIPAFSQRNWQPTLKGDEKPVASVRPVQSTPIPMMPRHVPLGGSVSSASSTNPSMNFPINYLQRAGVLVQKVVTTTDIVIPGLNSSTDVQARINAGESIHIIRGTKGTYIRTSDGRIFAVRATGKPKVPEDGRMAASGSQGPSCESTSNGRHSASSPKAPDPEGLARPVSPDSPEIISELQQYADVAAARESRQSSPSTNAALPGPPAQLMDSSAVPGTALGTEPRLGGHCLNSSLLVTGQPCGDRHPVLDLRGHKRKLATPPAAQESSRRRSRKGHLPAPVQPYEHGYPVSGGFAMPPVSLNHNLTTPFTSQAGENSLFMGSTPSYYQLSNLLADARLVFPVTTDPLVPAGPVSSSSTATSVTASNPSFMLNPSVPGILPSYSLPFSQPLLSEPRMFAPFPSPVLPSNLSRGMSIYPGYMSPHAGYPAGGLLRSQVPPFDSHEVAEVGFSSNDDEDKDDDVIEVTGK
UniProt Q8WU10: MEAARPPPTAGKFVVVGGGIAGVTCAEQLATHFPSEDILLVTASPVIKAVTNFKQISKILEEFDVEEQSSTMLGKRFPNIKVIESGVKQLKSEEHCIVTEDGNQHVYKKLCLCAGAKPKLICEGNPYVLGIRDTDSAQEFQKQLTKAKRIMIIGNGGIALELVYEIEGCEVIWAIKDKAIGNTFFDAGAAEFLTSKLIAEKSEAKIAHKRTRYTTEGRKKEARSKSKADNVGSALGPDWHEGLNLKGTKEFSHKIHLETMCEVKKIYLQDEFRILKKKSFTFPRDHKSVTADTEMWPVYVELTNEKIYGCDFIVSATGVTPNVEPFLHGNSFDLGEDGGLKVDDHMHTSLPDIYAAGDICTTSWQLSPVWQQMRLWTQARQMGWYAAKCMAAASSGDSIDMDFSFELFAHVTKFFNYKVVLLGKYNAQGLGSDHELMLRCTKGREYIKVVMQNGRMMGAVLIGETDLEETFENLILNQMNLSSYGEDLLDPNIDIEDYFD
UniProt P51159: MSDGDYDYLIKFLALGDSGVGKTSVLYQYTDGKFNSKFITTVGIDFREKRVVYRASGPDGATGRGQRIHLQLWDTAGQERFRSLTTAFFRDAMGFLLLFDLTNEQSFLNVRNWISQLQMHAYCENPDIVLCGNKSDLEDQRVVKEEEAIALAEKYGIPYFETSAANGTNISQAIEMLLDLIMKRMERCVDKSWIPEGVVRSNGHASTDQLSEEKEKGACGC
UniProt Q2TAL8: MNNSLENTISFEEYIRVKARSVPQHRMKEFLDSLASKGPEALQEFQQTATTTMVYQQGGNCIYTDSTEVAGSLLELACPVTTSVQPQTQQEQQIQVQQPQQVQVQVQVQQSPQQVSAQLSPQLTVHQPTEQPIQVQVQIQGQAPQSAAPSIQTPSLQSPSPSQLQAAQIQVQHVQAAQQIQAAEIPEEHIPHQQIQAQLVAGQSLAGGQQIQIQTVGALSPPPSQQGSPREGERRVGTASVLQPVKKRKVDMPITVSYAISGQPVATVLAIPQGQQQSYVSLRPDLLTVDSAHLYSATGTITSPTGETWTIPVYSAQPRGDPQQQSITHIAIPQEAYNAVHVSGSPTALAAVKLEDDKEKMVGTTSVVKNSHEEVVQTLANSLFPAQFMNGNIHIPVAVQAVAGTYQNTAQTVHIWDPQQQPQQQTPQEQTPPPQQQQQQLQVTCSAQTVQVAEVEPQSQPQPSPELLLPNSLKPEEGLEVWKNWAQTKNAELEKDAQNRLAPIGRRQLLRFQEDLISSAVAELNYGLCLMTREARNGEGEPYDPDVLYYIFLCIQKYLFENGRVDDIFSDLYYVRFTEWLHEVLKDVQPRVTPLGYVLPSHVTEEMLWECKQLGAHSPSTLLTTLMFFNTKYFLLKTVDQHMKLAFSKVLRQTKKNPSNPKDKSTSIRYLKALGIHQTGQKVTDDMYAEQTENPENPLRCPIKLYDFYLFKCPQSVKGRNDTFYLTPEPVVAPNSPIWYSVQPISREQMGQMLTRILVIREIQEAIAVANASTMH
UniProt P47224: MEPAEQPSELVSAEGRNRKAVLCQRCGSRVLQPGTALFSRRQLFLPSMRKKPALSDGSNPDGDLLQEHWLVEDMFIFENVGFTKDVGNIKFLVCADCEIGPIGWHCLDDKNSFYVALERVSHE
UniProt Q96I23: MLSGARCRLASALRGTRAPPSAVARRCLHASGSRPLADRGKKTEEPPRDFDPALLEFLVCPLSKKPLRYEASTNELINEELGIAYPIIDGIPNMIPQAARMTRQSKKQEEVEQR
UniProt Q7Z6M1: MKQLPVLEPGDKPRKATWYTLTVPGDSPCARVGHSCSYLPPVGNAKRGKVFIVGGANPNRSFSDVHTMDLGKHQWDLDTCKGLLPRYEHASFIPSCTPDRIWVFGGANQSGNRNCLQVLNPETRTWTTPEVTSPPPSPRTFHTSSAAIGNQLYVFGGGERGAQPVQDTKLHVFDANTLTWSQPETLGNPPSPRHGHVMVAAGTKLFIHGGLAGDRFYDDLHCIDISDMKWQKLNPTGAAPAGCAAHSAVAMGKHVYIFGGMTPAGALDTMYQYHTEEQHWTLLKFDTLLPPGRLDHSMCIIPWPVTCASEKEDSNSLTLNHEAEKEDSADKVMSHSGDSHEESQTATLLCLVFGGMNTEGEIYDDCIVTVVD
UniProt Q9H5N1: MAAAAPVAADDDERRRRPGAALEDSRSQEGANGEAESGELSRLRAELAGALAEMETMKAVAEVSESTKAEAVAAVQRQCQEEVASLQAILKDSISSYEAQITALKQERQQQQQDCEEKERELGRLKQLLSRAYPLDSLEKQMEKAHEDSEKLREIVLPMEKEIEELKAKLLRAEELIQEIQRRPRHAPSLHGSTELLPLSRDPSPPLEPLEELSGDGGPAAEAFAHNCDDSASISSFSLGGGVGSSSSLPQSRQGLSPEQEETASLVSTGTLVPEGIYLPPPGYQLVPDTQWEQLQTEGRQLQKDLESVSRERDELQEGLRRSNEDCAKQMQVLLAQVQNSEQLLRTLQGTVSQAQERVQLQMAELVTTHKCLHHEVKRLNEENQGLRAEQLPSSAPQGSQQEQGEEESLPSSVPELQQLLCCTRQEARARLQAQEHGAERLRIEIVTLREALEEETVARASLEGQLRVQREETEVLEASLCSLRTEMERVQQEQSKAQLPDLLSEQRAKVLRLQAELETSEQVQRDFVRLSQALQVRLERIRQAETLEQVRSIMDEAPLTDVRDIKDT
UniProt Q13905: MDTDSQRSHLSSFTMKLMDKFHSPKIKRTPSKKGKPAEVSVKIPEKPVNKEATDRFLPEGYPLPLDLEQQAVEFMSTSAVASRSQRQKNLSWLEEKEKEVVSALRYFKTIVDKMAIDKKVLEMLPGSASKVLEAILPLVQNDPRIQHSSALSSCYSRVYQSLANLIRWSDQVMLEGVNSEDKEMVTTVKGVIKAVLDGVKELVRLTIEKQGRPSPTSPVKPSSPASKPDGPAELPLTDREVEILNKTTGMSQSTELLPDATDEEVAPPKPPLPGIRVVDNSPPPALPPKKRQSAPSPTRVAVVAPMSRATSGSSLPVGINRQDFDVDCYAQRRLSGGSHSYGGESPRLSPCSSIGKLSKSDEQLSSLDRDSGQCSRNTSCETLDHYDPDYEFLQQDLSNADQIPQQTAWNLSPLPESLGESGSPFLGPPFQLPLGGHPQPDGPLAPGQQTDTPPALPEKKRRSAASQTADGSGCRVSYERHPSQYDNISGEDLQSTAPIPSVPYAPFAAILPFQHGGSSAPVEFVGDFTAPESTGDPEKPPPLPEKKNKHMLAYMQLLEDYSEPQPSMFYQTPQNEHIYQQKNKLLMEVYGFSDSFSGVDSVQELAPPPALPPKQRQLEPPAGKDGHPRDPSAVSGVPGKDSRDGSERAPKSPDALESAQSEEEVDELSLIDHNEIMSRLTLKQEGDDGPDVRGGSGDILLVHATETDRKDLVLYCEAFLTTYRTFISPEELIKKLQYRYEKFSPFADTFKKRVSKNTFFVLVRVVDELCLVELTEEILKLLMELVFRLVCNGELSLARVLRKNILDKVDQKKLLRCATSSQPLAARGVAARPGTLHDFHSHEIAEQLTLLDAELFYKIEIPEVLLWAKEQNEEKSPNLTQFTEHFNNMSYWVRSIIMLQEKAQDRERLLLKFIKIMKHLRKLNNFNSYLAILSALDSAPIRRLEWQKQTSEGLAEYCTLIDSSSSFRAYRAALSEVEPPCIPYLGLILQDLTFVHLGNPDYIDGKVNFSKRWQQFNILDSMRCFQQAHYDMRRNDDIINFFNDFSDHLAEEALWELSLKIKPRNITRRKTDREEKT
UniProt O15315: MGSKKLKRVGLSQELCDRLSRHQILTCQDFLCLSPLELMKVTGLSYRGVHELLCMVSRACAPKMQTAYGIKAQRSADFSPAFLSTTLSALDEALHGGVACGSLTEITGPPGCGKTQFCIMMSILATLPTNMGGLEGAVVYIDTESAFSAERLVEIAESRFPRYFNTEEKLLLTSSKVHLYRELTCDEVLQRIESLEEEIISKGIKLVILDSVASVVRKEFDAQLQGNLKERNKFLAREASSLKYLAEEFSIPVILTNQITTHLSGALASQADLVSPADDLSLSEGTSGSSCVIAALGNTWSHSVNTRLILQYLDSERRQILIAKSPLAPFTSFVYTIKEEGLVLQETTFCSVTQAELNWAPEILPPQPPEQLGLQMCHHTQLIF

How the values were obtained:
Assay in all cases: log2 fold change, soluble protein after heating vs DMSO (PISA); higher = thermal stabilisation; K562 lysate, 10 uM; active = over 0.2 and 3.5 SD of the protein, either way, in both replicates (recomputed)
nilotinib = compound: Cc1cn(-c2cc(NC(=O)c3ccc(C)c(Nc4nccc(-c5cccnc5)n4)c3)cc(C(F)(F)F)c2)cn1 [nilotinib]
How it was run: (§1)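 To prepare the extract, K562 pellets were dounce-homogenised in PBS pH 7.4 with 1 mM MgCl2, giving crude material at 1 mg/mL protein. This was treated with 10 μM compound for 30 min, then heated in aliquots for 3 min over 48°C-58°C before pooling and addition of NP-40 to 0.5% at 4°C. Centrifugation at 21,000xg for 90 min left soluble protein in the supernatant, which TMTpro 16plex LC-MS/MS quantified with equalised channel sums. Results are log-two fold changes in thermal stability compared with solvent controls, from duplicates.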

[1] = compound: Cc1nc(Nc2n[nH]c3c2CN(C(=O)N[C@H](CN(C)C)c2ccccc2)C3(C)C)c2sccc2n1
How it was run: as §1

dasatinib = compound: Cc1nc(Nc2ncc(C(=O)Nc3c(C)cccc3Cl)s2)cc(N2CCN(CCO)CC2)n1 [dasatinib]
How it was run: as §1

[2] = compound: Cc1ncc(-c2ccnc(Nc3ccc(S(C)(=O)=O)cc3)n2)n1C(C)C
How it was run: as §1

[3] = compound: Cn1cc(-c2ccc3c(c2)CCN3C(=O)Cc2cccc(C(F)(F)F)c2)c2c(N)ncnc21
How it was run: as §1

quisinostat = compound: Cn1cc(CNCC2CCN(c3ncc(C(=O)NO)cn3)CC2)c2ccccc21 [quisinostat]
How it was run: as §1

tipifarnib = compound: Cn1cncc1[C@@](N)(c1ccc(Cl)cc1)c1ccc2c(c1)c(-c1cccc(Cl)c1)cc(=O)n2C [tipifarnib]
How it was run: as §1

[4] = compound: NC(=O)Nc1cc(-c2cccc(F)c2)sc1C(=O)N[C@H]1CCCNC1
How it was run: as §1

[5] = compound: NC(=O)c1cnc(N[C@@H]2CCCC[C@@H]2N)nc1Nc1cccc(-n2nccn2)c1
How it was run: as §1

[6] = compound: NC1(c2ccc(-c3nc4ccn5c(=O)[nH]nc5c4cc3-c3ccccc3)cc2)CCC1
How it was run: as §1

Measured: log2 fold change

PYGB (UniProt P11216)
inactive: nilotinib -0.019 | [1] 0.001 | dasatinib 0.112 | [2] -0.02 | [3] 0.006 | quisinostat -0.033 | tipifarnib 0.014 | [4] 0.013 | [5] 0.003 | [6] 0.04

RAB3GAP2 (UniProt Q9H2M9)
inactive: nilotinib 0.001 | [1] 0.001 | dasatinib -0.05 | [2] -0.002 | [3] 0.044 | quisinostat 0.001 | tipifarnib -0.023 | [4] 0.003 | [5] 0.02 | [6] -0.012

RABGEF1 isoform 3 (UniProt Q9UJ41)
inactive: nilotinib -0.005 | [1] -0.019 | dasatinib 0.01 | [2] 0.011 | [3] 0.027 | quisinostat -0.028 | tipifarnib 0.001 | [4] 0.017 | [5] -0.006 | [6] -0.03

R3HCC1 (UniProt Q9Y3T6)
inactive: nilotinib -0.023 | [1] 0.012 | dasatinib 0.043 | [2] 0.011 | [3] -0.049 | quisinostat -0.014 | tipifarnib -0.058 | [4] -0.036 | [5] 0.003 | [6] 0.038

RAD54L2 (UniProt Q9Y4B4)
inactive: nilotinib -0.037 | [1] -0.03 | dasatinib -0.053 | [2] -0.047 | [3] -0.15 | quisinostat -0.009 | tipifarnib -0.105 | [4] -0.013 | [5] 0.035 | [6] -0.091

PYROXD1 (UniProt Q8WU10)
inactive: nilotinib 0.002 | [1] 0.053 | dasatinib 0 | [2] -0.178 | [3] 0.015 | quisinostat 0.086 | tipifarnib 0.218 | [4] -0.013 | [5] 0.055 | [6] 0.005

RAB9A (UniProt P51151)
inactive: nilotinib -0.041 | [1] -0.038 | dasatinib -0.006 | [2] 0.013 | [3] -0.03 | quisinostat 0.069 | tipifarnib -0.035 | [4] -0.032 | [5] -0.014 | [6] -0.001

RAB4B isoform 2 (UniProt P61018)
inactive: nilotinib 0.026 | [1] 0.017 | dasatinib -0.064 | [2] -0.017 | [3] 0.255 | quisinostat 0 | tipifarnib -0.08 | [4] -0.002 | [5] 0.011 | [6] 0.021

RAB27A (UniProt P51159)
inactive: nilotinib -0.018 | [1] 0.02 | dasatinib 0.022 | [2] -0.059 | [3] 0.003 | quisinostat 0.037 | tipifarnib 0.038 | [4] -0.024 | [5] 0.014 | [6] 0.021

QRICH1 (UniProt Q2TAL8)
inactive: nilotinib -0.005 | [1] 0.008 | dasatinib -0.1 | [2] -0.034 | [3] 0.034 | quisinostat -0.047 | tipifarnib 0.004 | [4] 0.019 | [5] -0.003 | [6] 0.019

RABIF (UniProt P47224)
inactive: nilotinib -0.003 | [1] 0.021 | dasatinib 0.058 | [2] 0.002 | [3] 0 | quisinostat 0.024 | tipifarnib -0.007 | [4] -0.036 | [5] -0.033 | [6] 0.009

RAB20 (UniProt Q9NX57)
inactive: nilotinib -0.044 | [1] -0.131 | dasatinib -0.076 | [2] -0.106 | [3] 0.029 | quisinostat 0.018 | tipifarnib -0.221 | [4] -0.022 | [5] 0.065 | [6] -0.073

PYURF (UniProt Q96I23)
inactive: nilotinib -0.03 | [1] 0.051 | dasatinib 0.002 | [2] 0.004 | [3] 0.048 | quisinostat 0.011 | tipifarnib -0.009 | [4] -0.075 | [5] -0.064 | [6] -0.006

Quoted at random: two entries already listed, in no set order.
PYGB (UniProt P11216)
inactive: nilotinib -0.019 | [1] 0.001 | dasatinib 0.112 | [2] -0.02 | [3] 0.006 | quisinostat -0.033 | tipifarnib 0.014 | [4] 0.013 | [5] 0.003 | [6] 0.04

RAB9A (UniProt P51151)
inactive: nilotinib -0.041 | [1] -0.038 | dasatinib -0.006 | [2] 0.013 | [3] -0.03 | quisinostat 0.069 | tipifarnib -0.035 | [4] -0.032 | [5] -0.014 | [6] -0.001

Additional records:

PYGO2 (UniProt Q9BRQ0)
inactive: nilotinib 0.01 | [1] 0.044 | dasatinib -0.028 | [2] 0.063 | [3] 0.004 | quisinostat 0.016 | tipifarnib -0.02 | [4] -0.015 | [6] 0.029

RABEPK (UniProt Q7Z6M1)
inactive: nilotinib -0.003 | [1] 0.005 | dasatinib 0.005 | [2] -0.01 | [3] 0.012 | quisinostat 0.004 | tipifarnib 0.007 | [4] -0.018 | [5] 0.013 | [6] 0.002

RABEP2 (UniProt Q9H5N1)
inactive: nilotinib 0.038 | [1] -0.006 | dasatinib 0.026 | [2] 0.029 | [3] 0.016 | quisinostat -0.029 | tipifarnib 0.046 | [4] -0.002 | [5] 0.005 | [6] 0.006

RAD9A (UniProt Q99638)
inactive: nilotinib -0.021 | [1] -0.005 | dasatinib -0.025 | [2] -0.026 | [3] 0 | quisinostat -0.023 | tipifarnib 0.013 | [4] -0.019 | [5] 0.031 | [6] 0.009

RAP1GDS1 isoform 5 (UniProt P52306)
inactive: nilotinib -0.024 | [1] 0.021 | dasatinib 0.013 | [2] -0.07 | [3] 0.004 | quisinostat 0.006 | tipifarnib 0.005 | [4] 0.02 | [5] -0.019 | [6] -0.014

RAPGEF1 isoform 3 (UniProt Q13905)
inactive: nilotinib -0.011 | [1] 0.032 | dasatinib -0.028 | [2] 0.009 | [3] 0.014 | quisinostat 0 | tipifarnib -0.057 | [4] -0.013 | [5] -0.002 | [6] -0.007

QSER1, A0A3B3IRW6
inactive: nilotinib -0.028 | [1] 0.056 | dasatinib 0.018 | [2] 0.042 | [3] 0.052 | quisinostat -0.117 | tipifarnib -0.048 | [4] 0.064 | [5] -0.027 | [6] -0.048

RANGAP1 (UniProt P46060)
inactive: nilotinib 0.014 | [1] -0.004 | dasatinib -0.026 | [2] 0.01 | [3] 0.008 | quisinostat -0.013 | tipifarnib -0.032 | [4] 0.004 | [5] 0.002 | [6] 0.002

RABGGTB (UniProt P53611)
inactive: nilotinib 0.005 | [1] 0.003 | dasatinib 0.017 | [2] 0.006 | [3] -0.009 | quisinostat -0.02 | tipifarnib -0.013 | [4] 0.033 | [5] -0.016 | [6] 0.031

RABEP1 (UniProt Q15276)
inactive: nilotinib 0.022 | [1] -0.01 | dasatinib 0.008 | [2] 0.011 | [3] -0.004 | quisinostat 0.004 | tipifarnib -0.011 | [4] -0.006 | [5] -0.004 | [6] 0.007

RAB6D (UniProt Q53S08)
inactive: nilotinib -0.028 | [1] -0.019 | dasatinib -0.004 | [2] 0.111 | [3] -0.008 | quisinostat -0.056 | tipifarnib -0.162 | [4] -0.006 | [5] -0.013 | [6] -0.064

RABL3 (UniProt Q5HYI8)
inactive: nilotinib 0.049 | [1] -0.03 | dasatinib -0.077 | [2] -0.051 | [3] 0.01 | quisinostat -0.056 | tipifarnib 0.08 | [4] 0.084 | [5] -0.003 | [6] 0.267

RAB1A (UniProt P62820)
inactive: nilotinib 0.041 | [1] 0.002 | dasatinib -0.033 | [2] -0.018 | [3] 0.002 | quisinostat 0.011 | tipifarnib -0.07 | [4] -0.031 | [5] -0.03 | [6] -0.015

RAB4A (UniProt P20338)
inactive: nilotinib 0.09 | [1] 0.008 | dasatinib 0.015 | [2] 0.003 | [3] 0.023 | quisinostat 0 | tipifarnib -0.037 | [4] -0.104 | [5] -0.049 | [6] 0.026

RAB6A isoform 4 (UniProt P20340)
inactive: nilotinib 0.016 | [1] 0.025 | dasatinib -0.002 | [2] 0.035 | [3] 0 | quisinostat 0.004 | tipifarnib -0.071 | [4] 0.014 | [5] -0.011 | [6] -0.042

RAD51B (UniProt O15315)
inactive: nilotinib -0.017 | [1] -0.038 | dasatinib -0.081 | [2] 0.074 | [3] 0.014 | quisinostat -0.117 | tipifarnib 0.015 | [4] -0.057 | [6] -0.054

QDPR (UniProt P09417)
inactive: nilotinib -0.029 | [1] -0.013 | dasatinib -0.031 | [2] 0.047 | [3] 0.011 | quisinostat -0.029 | tipifarnib 0.008 | [4] -0.004 | [5] 0.004 | [6] 0.002
